One assay concerns the target T1, CMKLR1-eYFP (UniProt Q99788).
T1 sequence: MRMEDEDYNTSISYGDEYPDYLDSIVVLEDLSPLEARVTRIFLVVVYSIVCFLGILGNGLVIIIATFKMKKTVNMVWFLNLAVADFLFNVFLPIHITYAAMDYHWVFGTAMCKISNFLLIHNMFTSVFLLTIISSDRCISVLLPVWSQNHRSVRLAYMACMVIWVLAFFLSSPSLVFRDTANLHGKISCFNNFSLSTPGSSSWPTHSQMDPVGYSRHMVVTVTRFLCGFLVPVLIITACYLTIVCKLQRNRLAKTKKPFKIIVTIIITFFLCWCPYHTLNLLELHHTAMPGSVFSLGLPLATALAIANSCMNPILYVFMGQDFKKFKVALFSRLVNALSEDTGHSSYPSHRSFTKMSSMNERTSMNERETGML
Put plainly: FRET or BRET; arrestin3 recruitment: COS-7 cells co-transfected with GPR1-eYFP or CMKLR1-eYFP and Rluc8-Arr3, stimulated with agonist (ChemS157 or chemerin-9) in BRET buffer (25 mM HEPES, pH 7.4 in HBSS), coelenterazine H; kinetics over 20 min or read after 10 min.

Chains of the proteins cited; added tags and fusions are not shown.
UniProt P32120: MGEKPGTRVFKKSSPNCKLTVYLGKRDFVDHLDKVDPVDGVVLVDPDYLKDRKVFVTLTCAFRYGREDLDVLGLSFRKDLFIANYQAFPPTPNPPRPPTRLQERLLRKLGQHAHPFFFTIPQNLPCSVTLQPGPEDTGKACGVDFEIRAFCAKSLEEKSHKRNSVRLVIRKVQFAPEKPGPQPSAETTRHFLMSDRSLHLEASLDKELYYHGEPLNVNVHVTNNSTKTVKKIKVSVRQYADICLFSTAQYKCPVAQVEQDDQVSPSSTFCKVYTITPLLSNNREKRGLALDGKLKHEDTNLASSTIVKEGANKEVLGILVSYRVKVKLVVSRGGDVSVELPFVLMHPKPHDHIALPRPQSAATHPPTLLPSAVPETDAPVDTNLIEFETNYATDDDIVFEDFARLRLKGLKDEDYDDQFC

For the next assay, the target named is T2, GPR1-eYFP (human) (UniProt P46091).
T2 sequence: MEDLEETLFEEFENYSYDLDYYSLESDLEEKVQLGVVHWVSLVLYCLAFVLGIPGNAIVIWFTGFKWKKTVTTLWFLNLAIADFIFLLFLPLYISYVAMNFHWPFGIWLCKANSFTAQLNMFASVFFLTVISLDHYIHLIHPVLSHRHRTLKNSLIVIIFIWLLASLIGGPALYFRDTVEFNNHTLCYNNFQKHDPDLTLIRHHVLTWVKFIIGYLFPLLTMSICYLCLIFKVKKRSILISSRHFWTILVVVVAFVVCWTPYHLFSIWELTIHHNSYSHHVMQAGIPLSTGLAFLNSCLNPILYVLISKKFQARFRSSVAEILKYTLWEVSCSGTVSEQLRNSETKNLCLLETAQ
Described as above.

Assay [1] addresses T3, Nluc-GPR1-eYFP (wild type) (human) (UniProt P46091).
T3 sequence: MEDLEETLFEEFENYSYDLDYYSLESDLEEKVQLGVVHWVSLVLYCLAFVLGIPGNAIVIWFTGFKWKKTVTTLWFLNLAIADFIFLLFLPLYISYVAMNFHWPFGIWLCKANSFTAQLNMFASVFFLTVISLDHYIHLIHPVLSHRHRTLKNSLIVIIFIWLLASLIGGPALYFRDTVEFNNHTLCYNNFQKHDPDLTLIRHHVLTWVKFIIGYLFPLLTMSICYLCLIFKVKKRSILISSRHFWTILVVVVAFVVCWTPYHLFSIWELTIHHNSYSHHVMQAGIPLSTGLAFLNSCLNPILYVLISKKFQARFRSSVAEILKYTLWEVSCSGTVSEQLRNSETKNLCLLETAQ
Put plainly: FRET or BRET; NanoBRET ligand binding: COS-7 cells transiently expressing the Nluc-GPR1-eYFP construct, Tam-labeled peptide added in BRET buffer (25 mM HEPES, pH 7.4 in HBSS), furimazine; Tam emission 550-700 nm over NanoLuc luminescence 430-470 nm; 37 °C; only the binder purified. (In BRET a luciferase serves as donor, and the signal depends on an acceptor being close.)

These are yes or no findings as the source states them, for the method shown. Binding seen in cells or lysates may run through a third protein. Some binding calls cover weakened binding; strength is not graded here. Sequences can lack the tags named with a protein.

This is an account of results in paper PMC8429170, “Ligand-binding and -scavenging of the chemerin receptor GPR1” (Cellular and Molecular Life Sciences: CMLS, 2021).

As for Rluc8-Arr3 (from UniProt P32120 1-420), the binding entry with CMKLR1-eYFP and with GPR1-eYFP (human) was “binds” throughout. With QFYSFFPAG (Tam on the N-terminus through an ethylene glycol linker (EG(4))) [Tam-EG(4)-scr2C9], the binding entry in assay [1] is reported as “binds”.
